Data source: PubChem BioAssay AID720505 (Drosophila RNAi Screening Center, 2013)
The deposit covers about 20,000 reagents; below is a random part of those that have a named target and a result. In the full data, about 2,100 (10%) got an active call. 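Raw plate signals without normalisation; calls rest on control-based scores that were not deposited; replicate 2 separates called from uncalled poorly.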 Reagents against one gene are numbered here. Names joined by + are all predicted targets of the reagent. Not given: the amount of reagent, the time to read-out.

Test: 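Knock-downs that reduce calcium influx once internal stores are emptied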 (primary screen)
Cell system: Drosophila S2R+ cells
Knock-down reagent: long dsRNA against Drosophila genes
Challenge: thapsigargin (2 µM) in calcium-free buffer to empty internal stores, then 2 mM calcium added back
Measured: 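Fluo-4 signal in 384-well plates read on a FLIPR after thapsigargin (2 µM, calcium-free) store depletion and 2 mM calcium add-back; unnormalised mean endpoint per well; screen run twice, selected wells retested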
Reading the numbers: calcium signal and retest calcium signal: higher = more calcium entry after store depletion
Call rule: 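About 1500 genes called as lowering calcium entry, by varying amounts, judged against per-plate control wells with STIM1 as positive and Rho1 as negative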
Calls: active = called as lowering calcium entry; inactive = not called

Target gene | reagent | calcium signal, replicate 1 | calcium signal, replicate 2 | retest calcium signal, replicate 1 | retest calcium signal, replicate 2 | outcome
gukh | 1 | 141 | 136 | – | – | inactive
gukh | 2 | 117 | 125 | – | – | inactive
gukh | 3 | 114 | 245 | – | – | inactive
CG5062 | 1 | 315 | 76.8 | – | – | inactive
Shaw | 1 | 72.8 | 142 | – | – | active
Shaw | 2 | 139 | 73 | 69.2 | 86.7 | inactive
Shaw | 3 | 81.5 | 123 | – | – | active
CG8850 | 1 | 146 | 291 | – | – | inactive
Ank2 | 1 | 91.7 | 87.7 | – | – | inactive
Ank2 | 2 | 120 | 84.3 | – | – | inactive
Ank2 | 3 | 94.5 | 84.3 | – | – | inactive
Ank2 | 4 | 132 | 161 | – | – | inactive
LSm1 | 1 | 86 | 93.9 | – | – | inactive
CG31342 | 1 | 104 | 168 | – | – | inactive
CG31342 | 2 | 97 | 89.3 | – | – | inactive
CG13473 | 1 | 77.2 | 70.7 | – | – | inactive
CG10887 | 1 | 93.1 | 133 | 96.7 | 106 | inactive
Gapdh1 | 1 | 88.2 | 74.9 | – | – | inactive
CG4480 | 1 | 101 | 133 | – | – | inactive
Cyp6a17 | 1 | 140 | 111 | – | – | inactive
CG14684 | 1 | 157 | 105 | – | – | inactive
CG17290 | 1 | 148 | 122 | – | – | inactive
Efa6 | 1 | 60.3 | 134 | – | – | active
Efa6 | 2 | 99.5 | 83.9 | – | – | inactive
gammaTub37C | 1 | 115 | 159 | – | – | inactive
w | 1 | 122 | 161 | – | – | inactive
mRpS35 | 1 | 103 | 117 | – | – | inactive
hook | 1 | 101 | 112 | – | – | inactive
Tb | 1 | 124 | 101 | – | – | inactive
CG3857 | 1 | 82.4 | 78.9 | – | – | inactive
Elba1 | 1 | 115 | 109 | – | – | inactive
CycG | 1 | 118 | 119 | – | – | inactive
CycG | 2 | 109 | 143 | – | – | inactive
CG9967 | 1 | 88.3 | 140 | 86.9 | 117 | inactive
Tsp42Ec | 1 | 88.3 | 140 | – | – | inactive
beat-Va | 1 | 186 | 83.4 | – | – | inactive
IntS3 | 1 | 118 | 88.2 | – | – | inactive
Edem1 | 1 | 96.6 | 105 | – | – | inactive
cnk | 1 | 196 | 170 | – | – | inactive
AOX3 | 1 | 99.2 | 105 | – | – | inactive
CG14618 | 1 | 115 | 106 | – | – | inactive
Alp11 | 1 | 90.3 | 121 | – | – | inactive
CCHa2-R | 1 | 110 | 166 | – | – | inactive
CCHa2-R | 2 | 123 | 159 | – | – | inactive
CCHa2-R | 3 | 142 | 163 | – | – | inactive
APC10 | 1 | 143 | 154 | – | – | inactive
Vps28 | 1 | 190 | 203 | – | – | inactive
AstC-R2 | 1 | 124 | 171 | – | – | inactive
DMAP1 | 1 | 106 | 77.8 | – | – | inactive
salm | 1 | 184 | 178 | – | – | inactive
Vha100-5 | 1 | 165 | 132 | – | – | inactive
CG12360 (retired record) | 1 | 72.8 | 158 | – | – | inactive
xit | 1 | 178 | 113 | – | – | inactive
CG12301 | 1 | 107 | 71.4 | – | – | inactive
UGP | 1 | 113 | 150 | – | – | inactive
PGAP3 | 1 | 142 | 111 | – | – | inactive
Mpcp1 | 1 | 197 | 150 | – | – | inactive

Reagents listed above marked active, once more:
Target gene | reagent | calcium signal, replicate 1 | calcium signal, replicate 2 | retest calcium signal, replicate 1 | retest calcium signal, replicate 2 | outcome
Shaw | 1 | 72.8 | 142 | – | – | active
Shaw | 3 | 81.5 | 123 | – | – | active
Efa6 | 1 | 60.3 | 134 | – | – | active

Further results follow.
Target gene | reagent | calcium signal, replicate 1 | calcium signal, replicate 2 | retest calcium signal, replicate 1 | retest calcium signal, replicate 2 | outcome
Agxt | 1 | 130 | 124 | – | – | inactive
kairos | 1 | 167 | 118 | – | – | inactive
kairos | 2 | 129 | 144 | – | – | inactive
Cyp40 | 1 | 204 | 127 | – | – | inactive
GstE13 | 1 | 180 | 149 | – | – | inactive
CG9592 | 1 | 90.2 | 201 | – | – | inactive
CG10433 | 1 | 190 | 106 | – | – | inactive
CG17378 | 1 | 158 | 104 | – | – | inactive
CG9436 | 1 | 154 | 116 | – | – | inactive
CG9346 | 1 | 192 | 94.1 | – | – | inactive
Camp | 1 | 224 | 135 | – | – | inactive
Rab9 | 1 | 139 | 118 | – | – | inactive
Ntf-2r | 1 | 103 | 116 | – | – | inactive
dock | 1 | 92.8 | 206 | – | – | inactive
Nbr | 1 | 113 | 90 | – | – | inactive
RpS12 | 1 | 56.7 | 61.6 | – | – | active
mod(mdg4) + pre-mod(mdg4)-Z + pre-mod(mdg4)-T | 1 | 93.6 | 105 | – | – | inactive
CR18217 | 1 | 183 | 107 | – | – | inactive
CG34224 | 1 | 111 | 127 | – | – | inactive
Pino | 1 | 112 | 197 | – | – | inactive
Pino | 2 | 144 | 266 | – | – | inactive
PH4alphaNE1 | 1 | 122 | 148 | – | – | inactive
CG3224 | 1 | 208 | 169 | – | – | inactive
Gem4b + Gem4c + Glos | 1 | 122 | 147 | – | – | inactive
CG43183 | 1 | 99.7 | 130 | – | – | inactive
Gcn5 | 1 | 83.5 | 85.3 | – | – | inactive
Bx | 1 | 100 | 147 | – | – | inactive
Bx | 2 | 85.2 | 94.7 | – | – | inactive
Bx | 3 | 62.6 | 91 | – | – | inactive
CG43244 | 1 | 71.5 | 123 | – | – | inactive
Golgin245 | 1 | 175 | 96.1 | – | – | inactive
Golgin245 | 2 | 98.7 | 140 | – | – | inactive
CG5543 | 1 | 82.7 | 88.4 | – | – | inactive
CG10597 | 1 | 64.2 | 103 | 7394 | 188 | active
eIF2beta | 1 | 62.7 | 92.5 | – | – | inactive
Mp20 | 1 | 110 | 179 | – | – | inactive
CG12054 | 1 | 62 | 82.2 | – | – | active
CG12054 | 2 | 118 | 151 | – | – | inactive
rho-5 | 1 | 181 | 118 | 71.6 | 74.2 | inactive
foxo | 1 | – | – | – | – | active
foxo | 2 | 88.6 | 103 | – | – | inactive
Rh7 | 1 | 108 | 89.5 | – | – | inactive
GstZ2 | 1 | 131 | 122 | – | – | inactive
pim | 1 | 72.4 | 86.5 | – | – | inactive
CG3699 | 1 | 101 | 166 | – | – | inactive
CG3699 | 2 | 122 | 135 | – | – | inactive
swm | 1 | 100 | 98 | 91.4 | 121 | inactive
swm | 2 | 49.2 | 92.7 | – | – | active
cass | 1 | 88.9 | 105 | – | – | inactive
